Reference: publication PMC7206145
These are yes or no findings as the source states them, for the method shown. In cells and extracts the contact can be indirect. Some entries that bind do so weakly or less than the wild type.

Protein sequences, listed by entry. Tags and fused reporters are not part of them. Lines headed by an entry give the natural chain unless they say otherwise; changes in a name come on top.
UniProt Q9UKB1: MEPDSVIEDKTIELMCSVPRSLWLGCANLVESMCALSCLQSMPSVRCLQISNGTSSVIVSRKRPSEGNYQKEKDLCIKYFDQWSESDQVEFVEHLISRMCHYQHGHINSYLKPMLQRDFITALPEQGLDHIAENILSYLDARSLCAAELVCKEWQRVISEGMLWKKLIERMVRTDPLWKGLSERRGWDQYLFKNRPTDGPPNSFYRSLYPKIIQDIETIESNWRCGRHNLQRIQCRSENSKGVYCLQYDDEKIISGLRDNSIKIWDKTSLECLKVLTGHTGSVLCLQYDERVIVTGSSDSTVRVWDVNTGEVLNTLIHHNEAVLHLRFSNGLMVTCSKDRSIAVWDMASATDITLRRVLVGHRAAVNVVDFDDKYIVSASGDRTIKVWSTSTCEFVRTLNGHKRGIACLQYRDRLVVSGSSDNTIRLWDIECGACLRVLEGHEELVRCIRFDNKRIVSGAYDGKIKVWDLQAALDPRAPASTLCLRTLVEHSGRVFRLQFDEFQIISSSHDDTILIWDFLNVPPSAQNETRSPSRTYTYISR
UniProt Q13616: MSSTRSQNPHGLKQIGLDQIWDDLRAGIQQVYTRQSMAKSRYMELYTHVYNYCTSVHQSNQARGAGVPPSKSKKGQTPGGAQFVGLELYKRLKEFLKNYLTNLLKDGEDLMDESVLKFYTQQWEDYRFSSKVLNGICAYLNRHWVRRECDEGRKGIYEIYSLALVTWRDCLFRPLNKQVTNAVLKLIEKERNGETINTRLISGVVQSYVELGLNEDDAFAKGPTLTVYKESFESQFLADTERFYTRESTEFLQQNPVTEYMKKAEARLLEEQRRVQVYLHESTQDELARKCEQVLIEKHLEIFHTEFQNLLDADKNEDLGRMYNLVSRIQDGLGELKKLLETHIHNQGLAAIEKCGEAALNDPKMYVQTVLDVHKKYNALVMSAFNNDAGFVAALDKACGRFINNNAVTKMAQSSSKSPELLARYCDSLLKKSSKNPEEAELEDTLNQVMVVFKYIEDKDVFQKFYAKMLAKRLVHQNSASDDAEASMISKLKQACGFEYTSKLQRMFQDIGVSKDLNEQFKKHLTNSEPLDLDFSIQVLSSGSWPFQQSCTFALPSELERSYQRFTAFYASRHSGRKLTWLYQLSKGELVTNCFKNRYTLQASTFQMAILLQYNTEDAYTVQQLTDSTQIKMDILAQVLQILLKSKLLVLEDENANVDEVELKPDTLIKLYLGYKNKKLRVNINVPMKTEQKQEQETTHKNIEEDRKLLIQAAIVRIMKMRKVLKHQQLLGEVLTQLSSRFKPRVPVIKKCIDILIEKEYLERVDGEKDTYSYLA
UniProt Q9Y297: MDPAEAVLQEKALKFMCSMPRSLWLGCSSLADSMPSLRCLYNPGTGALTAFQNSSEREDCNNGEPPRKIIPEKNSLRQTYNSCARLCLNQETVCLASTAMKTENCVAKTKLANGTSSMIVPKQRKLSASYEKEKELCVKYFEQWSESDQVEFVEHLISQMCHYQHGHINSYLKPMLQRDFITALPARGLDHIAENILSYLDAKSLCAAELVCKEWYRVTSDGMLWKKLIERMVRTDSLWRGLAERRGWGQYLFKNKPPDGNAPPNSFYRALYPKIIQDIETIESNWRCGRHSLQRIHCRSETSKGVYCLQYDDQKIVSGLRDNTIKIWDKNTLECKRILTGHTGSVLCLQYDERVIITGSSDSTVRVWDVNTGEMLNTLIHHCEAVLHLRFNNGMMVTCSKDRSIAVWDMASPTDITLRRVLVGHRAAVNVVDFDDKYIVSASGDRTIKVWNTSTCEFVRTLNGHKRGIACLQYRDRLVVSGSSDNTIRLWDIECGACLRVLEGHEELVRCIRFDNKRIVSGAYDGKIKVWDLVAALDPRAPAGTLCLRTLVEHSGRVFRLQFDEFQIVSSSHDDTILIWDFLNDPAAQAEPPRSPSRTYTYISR

Tests used:
[1] = target: WT β-TrCP2 (construct of Fig. S3 and Fig. S7B) (human) (UniProt Q9UKB1); test: co-IP; supplementary Figs. S3A, S3B, S7A, S7B, legends not shown; the methods describe only IP of exogenous FLAG- or HA-tagged proteins from cell lysates with FLAG or HA beads
FLAG-tagged CUL1 (human) = FLAG-tagged CUL1 (human) (UniProt Q13616); test: co-IP; HEK293 cells transfected with FLAG-tagged bait for 48 h; lysate (50 mM Tris pH 7.5, 0.15 M NaCl, 1% NP-40, 0.1% SDS, 0.5% sodium deoxycholate) incubated with FLAG beads 3 h at 4 °C; endogenous prey detected by immunoblot; the text calls it a pull-down assay
[2] = target: FLAG-tagged β-TrCP1 (human) (UniProt Q9Y297); test: as above

| Substance | binding [1] | binding (FLAG-tagged CUL1 (human)) | binding [2] |
| --- | --- | --- | --- |
| WT β-TrCP1 (construct of Fig. S3 and Fig. S7A) (from UniProt Q9Y297 1-605) | binds | – | – |
| endogenous β-TrCP1 (from UniProt Q9Y297 1-605) | – | binds | – |
| endogenous β-TrCP2 (from UniProt Q9UKB1 1-542) | – | binds | binds |
| WT β-TrCP2 (construct of Fig. S3 and Fig. S7B) (from UniProt Q9UKB1 1-542) | binds | – | – |
